## Percent effect of library compounds

Chains of the proteins cited; added tags and fusions are not shown. Residues count along the entry.
UniProt Q4DA54, 1-478: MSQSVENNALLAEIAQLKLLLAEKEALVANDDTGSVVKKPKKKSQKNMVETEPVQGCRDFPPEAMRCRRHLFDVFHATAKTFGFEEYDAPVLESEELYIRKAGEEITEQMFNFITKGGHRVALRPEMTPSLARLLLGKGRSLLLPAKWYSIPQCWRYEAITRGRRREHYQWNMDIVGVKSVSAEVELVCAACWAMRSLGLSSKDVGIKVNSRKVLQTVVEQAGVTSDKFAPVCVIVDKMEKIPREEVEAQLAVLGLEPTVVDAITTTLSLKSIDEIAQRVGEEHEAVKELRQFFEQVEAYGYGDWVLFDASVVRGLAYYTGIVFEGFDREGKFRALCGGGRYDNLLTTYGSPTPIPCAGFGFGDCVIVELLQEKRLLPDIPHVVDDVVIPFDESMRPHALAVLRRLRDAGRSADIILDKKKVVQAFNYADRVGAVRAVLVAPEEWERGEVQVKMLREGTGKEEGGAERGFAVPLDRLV
UniProt A4I591, 1-473: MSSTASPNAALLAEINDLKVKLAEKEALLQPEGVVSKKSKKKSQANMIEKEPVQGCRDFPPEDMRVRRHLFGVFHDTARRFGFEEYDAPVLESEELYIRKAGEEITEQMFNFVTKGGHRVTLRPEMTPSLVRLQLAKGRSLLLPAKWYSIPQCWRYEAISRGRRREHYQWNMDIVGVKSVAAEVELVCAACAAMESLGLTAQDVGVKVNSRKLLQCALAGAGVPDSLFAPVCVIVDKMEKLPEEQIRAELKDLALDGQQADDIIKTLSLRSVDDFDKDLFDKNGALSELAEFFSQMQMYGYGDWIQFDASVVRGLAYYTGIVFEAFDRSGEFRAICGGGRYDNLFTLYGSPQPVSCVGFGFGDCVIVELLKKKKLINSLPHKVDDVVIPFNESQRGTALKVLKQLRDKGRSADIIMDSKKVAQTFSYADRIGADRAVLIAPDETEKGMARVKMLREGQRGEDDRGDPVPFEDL

The filed quantity is “Percent Effect” (%).
How 0% and 100% were set is not recorded. Most values in the screen are low, and negative values occur.
The compounds are a random part of those screened.
A dash means the value is not listed here; it may have been measured.

A: 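Whole-parasite assay of Trypanosoma brucei over 72 hours; the read-out is not stated. Concentration: 30 µM. Direction is inferred from retests: higher values go with stronger inhibition. Values scatter widely below zero; nearly all retest evidence comes from the higher of the two concentrations used. Of about 64,000 compounds tested this way, about 940 (1.5%) reached 50% or more in at least one test.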
B: 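Histidine-tRNA ligase, Trypanosoma cruzi CL Brener (UniProt Q4DA54). Enzyme assay of histidyl-tRNA synthetase; the read-out is not stated. Concentration: 30 µM. Direction is inferred from retests: higher values go with stronger inhibition. Size under these conditions: about 69,000 compounds, about 31 of them at 50% or above in at least one test.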
C: 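Histidine-tRNA ligase, Leishmania infantum (UniProt A4I591). Enzyme assay of histidyl-tRNA synthetase; the read-out is not stated. Compounds at 30 µM. Higher reads as stronger inhibition (inferred: compounds with an IC50 in retests scored well above the rest). The assay is labelled LdHisRS but filed under L. infantum. About 69,000 compounds were tested under these conditions; 0.6% (about 410) showed 50% or more at least once.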

structure | A | B | C
Cc1ccccc1CN1CCC2(CC1)CN(S(=O)(=O)c1ccccc1)C2.O=C(O)C(F)(F)F | -6.831 | - | -
Cc1ccc(=O)n(CC2(O)CCN(Cc3cnc(C)nc3)CC2)n1 | -31.6 | 3.784 | 13.89
Cc1cc(C)nc(N2CCC(c3noc(C)n3)CC2)n1 | -1.778 | 8.365 | 0.6897
CN(C)S(=O)(=O)N1CC[C@]2(O)CCN(Cc3cccc(F)c3)C[C@@H]2C1 | - | 3.867 | 31.33
CC(C)O[C@H]1CN(Cc2cnc3c(-c4ccccc4)cnn3c2)C[C@@H]1O | -29.33 | 4.372 | 14.04
CC(C)(C)OC(=O)NCC1CCN(C(=O)c2cc(Cl)c[nH]2)CC1 | -17.82 | 4.813 | 0.5236
CC(C)c1ccc(-c2nonc2N)cc1 | -17.66 | 5.78 | 12.37
COc1cccc(F)c1-c1nc2c([nH]1)c(C1CC1)nn2C | -80.08 | 2.762 | -4.225
Cc1cccc(N2CC3(CCN(S(=O)(=O)c4cccs4)C3)CC2=O)c1 (configuration not stated) | 1.61 | 3.883 | 19.23
CS(=O)(=O)NCCC1CN(Cc2ccccc2F)CCO1 (configuration not stated) | -17.69 | 10.12 | 13.98
N#Cc1cccnc1N1CCC2(CCCN(C3CCOCC3)C2=O)C1 (configuration not stated) | 21.86 | 0 | 1.905
CCCNC(=O)C1CCN(CC(O)c2ccccc2C(F)(F)F)CC1 (configuration not stated) | 19.12 | 3.879 | 21.52
Cc1cc(C(C)(O)CNC(=O)c2ccc(Br)o2)c(C)o1 (configuration not stated) | -43.86 | 2.618 | 13.79
O=C(NCCc1cc(N2CCOCC2)nc(NC2CC2)n1)C1CCCO1 (configuration not stated) | -10.95 | 5.65 | 8.392
[H][C@@]12C[C@@H](OCc3ccccn3)CN1CCN(C(=O)c1ccnnc1)C2 | -113.9 | - | -
CC(C)CC(=O)N1CC(=O)c2sc(NC3CCCCC3)nc2C1 | -18.82 | 9.04 | 14.29
Cc1nnc2n1CCN(CC(=O)Nc1cc(C(C)C)no1)C2 | 13.88 | -2.521 | 1.653
CCC(=O)N1CCC[C@]2(C(=O)N(C)C)CN(c3ccccn3)C[C@@H]2C1 | - | 5.714 | 15.28
Cc1cccc(NC(=O)CNC(=O)Cn2ncc(Cl)c(Cl)c2=O)c1C | 32.76 | 5.882 | 13.46
c1cnc(N2CCCC(Cc3nccs3)C2)nc1 (configuration not stated) | -0.7017 | 2.825 | -18.18
CCNc1ncc(C(=O)N2CCc3c(nc(C)nc3N(C)C)C2)cn1 | -37.99 | 7.921 | 11.9
CCS(=O)(=O)N1CCC2(CC(=O)N(c3ccccc3C)C2)C1 (configuration not stated) | -3.594 | 2.913 | 17.31
Cc1ccc(N(CC(=O)c2ccc(Br)cc2)C2=NCCCCC2)cc1 | - | 27.17 | 22.86
CC1=CCN(S(=O)(=O)c2cccc(C(=O)N3CCCN(C)CC3)c2)CC1 | -5.368 | 3.867 | 10.42
COCc1cn(CC2CCN(Cc3c(C)[nH]c4ccccc34)CC2)nn1 | -7.225 | 3.483 | 12.59
Cc1nnc(CN2CCCC2c2ccc(C(C)(C)C)cc2)o1 (configuration not stated) | 86.15 | 7.059 | 13.49
CC(=O)N1CCc2ccc(S(=O)(=O)N3CCCCC3C)cc21 (configuration not stated) | -50.91 | 0 | 8
Cc1cccc2c(CCNC(=O)NCCC[S+](C)[O-])c[nH]c12 (configuration not stated) | -6.672 | 3.784 | 10.26
Cc1cc(=O)c2ccccc2n1CC1CCNC1 (configuration not stated) | 4.816 | 3.247 | 16.13
CS(=O)(=O)NCCC1CCCN(Cc2ccccc2F)C1 (configuration not stated) | -25.36 | 4.167 | 13.98
CCn1nc(C)cc1C(=O)N1C[C@@H](CN(C)C)[C@@H](CO)C1 | -16.64 | 7.035 | 3.529
O=C(NC[C@]1(O)CN(Cc2ccccc2F)C[C@H]1O)c1cscn1 | -7.228 | 6.78 | 17.14
CCn1cc2c(n1)CN(Cc1cnn(C)c1)CC2COCC1CC1 (configuration not stated) | - | 8.867 | 17.65
O=C(O)C(F)(F)F.O=C(c1ccc[nH]1)N1CCC2(CCCN2Cc2cccnc2)CC1 | -8.212 | - | -
O=C(c1ccc(-n2cc(Br)cn2)cc1)N1CCN(c2cnccn2)CC1 | 43.71 | -1.478 | 24.68
COc1ccccc1C(=O)Nc1c(F)c(C(=O)N2CCCC2)nn1C | -41.32 | 9.901 | 5.495
COCCN1CCN(c2nc(O)cc(Cc3ccccc3F)n2)CC1 | - | 11.65 | 8.511
Cc1nn(C)c(C)c1C1CCCN1Cc1cccc(OCC(N)=O)c1 (configuration not stated) | - | 2.857 | 10.17
Cc1cc(C(=O)NC2=NCCS2)c(C)n1-c1ccccn1 | -29.16 | -4.95 | 3.261
COCCN1C(=O)C2(CCN(CC3CC3)CC2)c2ccccc21.O=C(O)C(F)(F)F | 4.729 | - | -

2 of the entries, repeated:

structure	A	B	C
Cc1ccc(=O)n(CC2(O)CCN(Cc3cnc(C)nc3)CC2)n1	-31.6	3.784	13.89
CC1=CCN(S(=O)(=O)c2cccc(C(=O)N3CCCN(C)CC3)c2)CC1	-5.368	3.867	10.42

The values are deposited in ChEMBL (CHEMBL3988442, “University of Dundee, Small-Polar-MMV Screening Library” (2021)).